Measurements taken from article PMC8847397.

Target: T1, endogenous SENP1 (SUMO-specific protease 1) in Jurkat E6.1 T cells (human (endogenous in Jurkat E6.1)) (UniProt Q9P0U3)
T1 sequence: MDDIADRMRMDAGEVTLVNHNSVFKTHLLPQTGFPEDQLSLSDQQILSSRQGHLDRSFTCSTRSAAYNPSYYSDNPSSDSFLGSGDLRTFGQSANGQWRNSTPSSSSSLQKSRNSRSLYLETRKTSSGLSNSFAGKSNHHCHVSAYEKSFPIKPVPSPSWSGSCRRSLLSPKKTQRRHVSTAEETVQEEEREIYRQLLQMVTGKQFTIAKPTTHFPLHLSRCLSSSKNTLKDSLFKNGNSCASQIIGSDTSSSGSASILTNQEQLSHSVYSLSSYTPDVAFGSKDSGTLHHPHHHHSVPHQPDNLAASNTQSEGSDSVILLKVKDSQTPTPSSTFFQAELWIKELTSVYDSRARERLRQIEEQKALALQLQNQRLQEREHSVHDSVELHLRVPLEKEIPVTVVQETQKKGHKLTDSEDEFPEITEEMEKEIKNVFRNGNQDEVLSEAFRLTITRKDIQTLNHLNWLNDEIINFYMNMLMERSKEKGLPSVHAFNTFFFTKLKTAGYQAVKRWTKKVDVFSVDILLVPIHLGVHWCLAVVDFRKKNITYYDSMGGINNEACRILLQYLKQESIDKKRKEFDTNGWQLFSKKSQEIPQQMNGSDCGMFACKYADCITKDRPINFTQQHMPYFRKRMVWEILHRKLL
Assay: affinity purification with mass spectrometry; immunoprecipitation with SENP1 antibody from Jurkat E6.1 T cells, SDS-PAGE, gel bands excised, tryptic digestion, LC-MS/MS

- binding: binds
Substance: endogenous Lck in Jurkat E6.1 T cells (from UniProt P06239-1 1-509) (enzyme)

These are yes or no findings as the source states them, for the method shown. In cells and extracts the contact can be indirect. These calls come from enrichment with a bait or labelling near it, and not all partners need be listed.
